The structures given here were assigned with low confidence; some may be wrong.
Target: OGG1 (Homo sapiens, UniProt O15527)
Experiment: fluorescence-based OGG1 activity assay (TAMRA/BHQ2 8-oxo-Gua substrate)
Settings: hydrazide forms vs parent acyl hydrazones

Amino acid sequences for entries named in this document (tags omitted).
UniProt O15527, whole entry: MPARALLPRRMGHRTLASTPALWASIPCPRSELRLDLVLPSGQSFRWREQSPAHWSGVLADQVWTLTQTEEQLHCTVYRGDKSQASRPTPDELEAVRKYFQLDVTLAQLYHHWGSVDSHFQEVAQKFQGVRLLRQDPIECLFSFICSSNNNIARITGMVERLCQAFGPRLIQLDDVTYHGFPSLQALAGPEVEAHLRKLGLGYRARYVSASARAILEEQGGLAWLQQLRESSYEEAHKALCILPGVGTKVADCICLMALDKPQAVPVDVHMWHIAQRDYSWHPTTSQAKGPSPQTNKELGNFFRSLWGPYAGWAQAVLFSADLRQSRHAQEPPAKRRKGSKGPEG

`NNC(=O)c1cc2ccccc2cc1O` [3-hydroxy-2-naphthohudrazide] was tested, and the “OGG1 IC50 values compared with parent molecules” value was “less than or equal to their parent molecules”.
